Results are given in words; binding and its absence hold for the method and conditions named. A result given as binding can be weak or reduced; the word gives no strength.
T1: AscY (A. salmonicida) (A. salmonicida) (UniProt Q8GA92)
T1 sequence: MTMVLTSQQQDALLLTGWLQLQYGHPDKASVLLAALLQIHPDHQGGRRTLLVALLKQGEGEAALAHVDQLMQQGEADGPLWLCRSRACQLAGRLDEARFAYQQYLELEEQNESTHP

B1: AscX (A. salmonicida) (protein, UniProt Q8GA93 1-121)
chain: MSRITAAHIGIEQLSAISLDDQERSLPGRYALLPDGQSIEPHISRLYPERLADRVLLDFATPDRGFHDLLRPVDFNQAMQGLRSVLAEGQSPELRAAAALLEQMHADEQLMQMTLHLLHKV

Columns and labels:
[1] = target: T1, AscY (A. salmonicida) (A. salmonicida); assay: two-hybrid
PscY (P. aeruginosa) = PscY (P. aeruginosa) (UniProt O30535); assay: two-hybrid

Row | Molecule | binding [1] | binding (PscY (P. aeruginosa))
1 | PscX (from UniProt O30534) | binds | binds
2 | B1 | – | binds
